Data source: PubChem BioAssay AID504791 (Drosophila RNAi Screening Center, 2011)

Screen: 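Factors in Argonaute-based small RNA production and activity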 (primary screen)
Cells: Drosophila S2-derived reporter cells
Reagents: long dsRNA against Drosophila genes, about 150-250 ng dsRNA per well (siRNA assay); about 80-120 ng (miRNA assay)
Time to read-out: about 5 days (siRNA assay); about 4 days (miRNA assay)
Conditions: copper sulfate induction of reporters: 25 µM (siRNA assay); 200 mM stated (miRNA assay), 1-2 days before reading
Measured: 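Dual luciferase assay: Renilla to firefly signal ratio in each well, scaled to the mean ratio of its plate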
Direction: siRNA reporter hit score: higher = 3 marks a strong hit with raised ratio; -3 a strong hit with lowered ratio
Call rule: 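a well was a first-pass pick when its plate-scaled ratio rose above 1.5 (siRNA assay) or 1.6 (miRNA assay), or dropped below 0.6; a gene counted only if two separate dsRNAs agreed on retest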
The deposit covers about 23,000 reagents; below is a random part of those with a known target gene and a result. Over the whole deposit, 199 (0.86%) are marked active. 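Plate-scaled ratios behind the calls are not deposited; printed light signals are raw; many rows marked increased or decreased are still called inactive.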 A number with no mark means an inactive call. Not all columns of the deposit are shown.

no.	Target gene	amplicon	siRNA reporter hit score	stable siRNA reporter change	miRNA reporter change	stable assay Renilla, run 1 (luminescence)
1	Toll-7	DRSC07563				4671
2	CG14052	DRSC17907				4818
3	CG14052	DRSC18192	-3			7468
4	CG2818	DRSC00540				66716
5	CG31680	DRSC21878				7991
6	e(y)3	DRSC19450				6176
7	dgt3	DRSC04349				10943
8	CG18262	DRSC18149				7151
9	CadN	DRSC03286				7086
10	Tsp68C	DRSC09295				6743
11	Osi8	DRSC12277				7284
12	CG30172	DRSC21519				9975
13	unk	DRSC17093				6975
14	CG32373	DRSC08895				3932
15	CG33340	DRSC14615				8118
16	CG15023	DRSC08477				7054
17	CG15023	DRSC25462			reporter ratio raised past the hit cutoff	
18	CG8641	DRSC11028				6487
19	CG13510	DRSC04152				6507
20	CG2812	DRSC04319		reporter ratio raised past the hit cutoff		8078
21	ple	DRSC11383				7018
22	CG33258	DRSC09415				5556
23	fid	DRSC14885				5878
24	fid	DRSC16464				7143
25	CG3168	DRSC18287				7067
26	nAChRalpha5	DRSC01360				6322
27	nAChRalpha5	DRSC01946				8059
28	nAChRalpha5	DRSC01947				4035
29	nAChRalpha5	DRSC22785				3263
30	CG14054	DRSC17909				6267
31	fipi	DRSC00465				6791
32	Bap170	DRSC04964				8628
33	Bap170	DRSC21826				8461
34	CG8665	DRSC03098				6555

Only “stable assay Renilla, run 1 (luminescence)” (5 entries from above):
Toll-7 [DRSC07563]: 4671
CG14052 [DRSC17907]: 4818
CG14052 [DRSC18192]: 7468
CG2818 [DRSC00540]: 66716
CG31680 [DRSC21878]: 7991
